Test results as given in the supplement of paper PMC5949888.
Most values lie at the floor of the assay. Slopes are relative: functional sequences can read slightly below zero.

Each substance was assayed on Saccharomyces cerevisiae PS128 hsf1 delta, HSF1(1-493) fusion (assay: growth estimate (transactivation domain function in HSF1 fusion, heat-shock survival) (a.u. (slope of normalised read count over time)); higher = stronger growth at 37°C, i.e. more transactivation activity). Details: library: random library.
Procedure: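 Random 60-nt DNA library encoding peptides of up to 20 aa, fused to the C-terminus of yeast HSF1 residues 1-493 (C-terminal TAD deleted) and expressed from the native HSF1 promoter on a CEN plasmid in hsf1-deleted S. cerevisiae PS128. Cells were selected at 37°C on -trp 5-FOA plates for 0, 2, 4, 6 and 8 days and amplicons were sequenced. Growth estimate is the slope of a robust linear fit of total-sum-normalised read counts (normalised to the first time point) over time, using at least 2 replicates. Sequences are classed functional (TAD activity) above a threshold of -0.13, set from stop-codon control sequences.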
For ASILWRGHVFWRSYMVLTAL, the growth estimate was < -0.25. In the case of ASITGSLFWGESFGA, the growth estimate is reported as < -0.25. ASKSLLRFSFKLHVSYPSSA was tested, and the growth estimate was < -0.25. ASLAAGISACPVVYAVRETI was tested, and the growth estimate was -0.245. In the case of ASLQELASKSPG, the growth estimate is reported as < -0.25. In the case of ASLRTRGVGMEMVTITFVPL, the growth estimate is reported as < -0.25. With ASLSRLERRLRK the growth estimate was < -0.25. ASLYGLPDDADRVDANSCDA was tested, and the growth estimate was < -0.25. ASNALKSVSWAPVLVLRALL was tested, and the growth estimate was < -0.25. ASNHLVDRGPVYVVSAAIYF was tested, and the growth estimate was < -0.25. In the case of ASPAYVRATPY, the growth estimate is reported as < -0.25. For ASPTRRFALGH, the growth estimate was < -0.25. Work on ASQDSVAIVGFLERWFCQKH yielded a growth estimate of -0.248. For ASRGAYHWGLSSMSGL, the growth estimate was < -0.25. In the case of ASRHFRPTCRANRSGNQLRR, the growth estimate is reported as -0.245. With ASRSTQGKRYAEYDRLEYQS the growth estimate was < -0.25. For ASRVGGSNESNEEATQNSP, the growth estimate was < -0.25. With ASSELIMVG the growth estimate was < -0.25. In the case of ASSIAVPARRLTSSLPLVSV, the growth estimate is reported as < -0.25. For ASSRHK, the growth estimate was < -0.25. With ASSSGPE the growth estimate was < -0.25. In the case of ASSVNGTIPPRA, the growth estimate is reported as < -0.25. ASTDWGEPLLGKKLVSARTR gave a growth estimate of -0.246. ASTLTLA was tested, and the growth estimate was < -0.25. ASV was tested, and the growth estimate was < -0.25. For ASVDLFSLLCIRR, the growth estimate was < -0.25. With ASVILPFGTKRIRQPRCRGT the growth estimate was < -0.25. With ASVIQQLR the growth estimate was < -0.25. ASVKPSAPPAKVSVWGNA was tested, and the growth estimate was < -0.25. For ASVRTEVSPVWGASTVDYGL, the growth estimate was < -0.25. ASVVGLEARVEKLG was tested, and the growth estimate was < -0.25. In the case of ASW, the growth estimate is reported as < -0.25. In the case of ASYGNDSVKGVTGWHGFLGR, the growth estimate is reported as < -0.25. With ATAQSSARVEREHKIHILRN the growth estimate was < -0.25. ATCIYT was tested, and the growth estimate was < -0.25. ATCRFSTIHDPQCQQFSCLP was tested, and the growth estimate was < -0.25. For ATCSYGGLAVTKDENYEGF, the growth estimate was < -0.25. In the case of ATDRGALPG, the growth estimate is reported as < -0.25. With ATEACWSSSCSEAEVSYNQT the growth estimate was < -0.25. For ATESEVHILCH, the growth estimate was < -0.25. For ATEYGCWAVYMGRSQRREWD, the growth estimate was -0.112. In the case of ATFSARGSRINHLRRL, the growth estimate is reported as < -0.25. For ATFSTRKRPECFGQAEVQSR, the growth estimate was < -0.25. For ATGVPARRQIVVETSPFTFM, the growth estimate was < -0.25. With ATHFATNPCGASAVSHGTAW the growth estimate was < -0.25. With ATHL the growth estimate was < -0.25. ATICQVGHKGNGEIRQKPWC was tested, and the growth estimate was < -0.25. With ATLSRRVWRVIIRLKRAIHI the growth estimate was < -0.25. ATLYGRYQRLMSKGGTHHQP was tested, and the growth estimate was < -0.25. For ATNQSPGGKLRSNSKPRNLM, the growth estimate was < -0.25. ATPAG was tested, and the growth estimate was < -0.25. In the case of ATPM, the growth estimate is reported as < -0.25. ATPRCSIPSVTYYLLCA was tested, and the growth estimate was < -0.25. In the case of ATPYVLRAQATLYPSTVVRT, the growth estimate is reported as < -0.25. With ATR the growth estimate was < -0.25. In the case of ATRHPSTLHWDGLSCTQGWA, the growth estimate is reported as < -0.25. For ATRRHWVLRMVVSLETELLQ, the growth estimate was < -0.25. ATSSRPLERMLVLTSPFVRA was tested, and the growth estimate was < -0.25. With ATVKSCLGQSLCRRSVRTNW the growth estimate was < -0.25. ATVQFSAMNRVHDRV was tested, and the growth estimate was < -0.25. For ATVRSRFKPGYPVRPCS, the growth estimate was < -0.25. In the case of ATVSPPLIVSWRVANLLERP, the growth estimate is reported as < -0.25. In the case of ATVVST, the growth estimate is reported as < -0.25. In the case of ATWLTEGRLLWHIRSTQGSM, the growth estimate is reported as -0.229. ATYLGLGVVPWARGDRFHRS was tested, and the growth estimate was < -0.25. With ATYPT the growth estimate was < -0.25. With ATYSV the growth estimate was < -0.25. With AVAEPSVFARFV the growth estimate was < -0.25. For AVAP, the growth estimate was < -0.25. For AVARIKNQAPYCPSTSEHGT, the growth estimate was < -0.25. AVCA was tested, and the growth estimate was < -0.25. In the case of AVCRVCPTASGSSTEILLV, the growth estimate is reported as < -0.25. For AVDASNSEAGAYLSRQCRNV, the growth estimate was < -0.25. For AVE, the growth estimate was < -0.25. AVEG was tested, and the growth estimate was < -0.25. For AVESPCGDKLWFARVI, the growth estimate was < -0.25. With AVFCYWTGVLR the growth estimate was < -0.25. With AVFPEGQTVSPSLGYERSPP the growth estimate was < -0.25. With AVFPVRNRISASAFRGRKGA the growth estimate was < -0.25. With AVFRIQAEGGAGKIRDSLIV the growth estimate was < -0.25. AVGC was tested, and the growth estimate was < -0.25. In the case of AVGGQ, the growth estimate is reported as < -0.25. In the case of AVGQFLEMSLDALPKSIQGA, the growth estimate is reported as < -0.25. For AVGVGSASQ, the growth estimate was < -0.25. For AVGYVR, the growth estimate was < -0.25. For AVIAEADRRMALCESFQVPD, the growth estimate was < -0.25. For AVIPPGVSLRLSRVWHIPRK, the growth estimate was < -0.25. In the case of AVISDRKSATGFIISAKPPY, the growth estimate is reported as < -0.25. AVITEPKIPYGAIINCSRIR was tested, and the growth estimate was < -0.25. For AVITRVKGSG, the growth estimate was < -0.25. For AVKRIRDESVGRLL, the growth estimate was < -0.25. For AVLILPYPGNSMHRLMPSFS, the growth estimate was < -0.25. For AVLKSSASLVPGFNPA, the growth estimate was < -0.25. With AVLPRLVPVIALAISGDVR the growth estimate was < -0.25. In the case of AVLQTKLQPQVGLDVLAHSY, the growth estimate is reported as < -0.25. For AVMKIRGKLVFHPWGMHHRV, the growth estimate was < -0.25. With AVNARTLFCTAIPAGWSR the growth estimate was -0.245. With AVP the growth estimate was < -0.25. For AVPDISQRAALAGWHCSDSA, the growth estimate was < -0.25. In the case of AVPLRAIIMVL, the growth estimate is reported as < -0.25. For AVQTC, the growth estimate was < -0.25. Work on AVQVLQLEWIVAVREVPNGF yielded a growth estimate of -0.246. In the case of AVRETDTVRGELHRLGPQVG, the growth estimate is reported as < -0.25. AVRLLSRRHAFCHL was tested, and the growth estimate was < -0.25. With AVS the growth estimate was < -0.25. With AVSACDRGGQRPKERIPIV the growth estimate was < -0.25. AVSRCHLVATVFRISSRLTT was tested, and the growth estimate was < -0.25. AVTQGLWTPRAGAA was tested, and the growth estimate was < -0.25. AVTRIVESDNWPE was tested, and the growth estimate was < -0.25. AVTVLEHSGPGGPTPTLLAF was tested, and the growth estimate was < -0.25. In the case of AVVARGKNTEMEGGYLVDHL, the growth estimate is reported as < -0.25. With AVVDAAHMDAWQIRERAGRK the growth estimate was < -0.25. For AVVHNNVDWF, the growth estimate was < -0.25. For AVVLMGNCITEWNSVEKALP, the growth estimate was < -0.25. AVVLSRLGFSRRQLASSSDQ was tested, and the growth estimate was < -0.25. With AVWERGCVGFGTILAWMAWA the growth estimate was < -0.25. AVYRRENNDPLQILTCSPDS showed a growth estimate of -0.237. AVYVAWDI showed a growth estimate of -0.232. With AWGAIVSWRSVRHRGRQWLW the growth estimate was < -0.25. For AWGYTKKGQGINQKRHLQRP, the growth estimate was < -0.25. With AWHSLRICFIGQ the growth estimate was < -0.25. In the case of AWHVRILTAKSNPNFNSLEY, the growth estimate is reported as < -0.25. With AWNTKSIARDSVSKPSRRVT the growth estimate was < -0.25. With AWRPLNCFIVRG the growth estimate was < -0.25. With AWRTSRKALSVPFRVILGST the growth estimate was < -0.25. Work on AWSSCGSEMFGSGGSFWNFC yielded a growth estimate of -0.0954. For AWVVRQS, the growth estimate was < -0.25. In the case of AYACEKVTSGIDDELSNTIG, the growth estimate is reported as < -0.25. In the case of AYCHLCSARFASDYC, the growth estimate is reported as -0.246. AYCVSARRVRWRPPLDRFIL was tested, and the growth estimate was < -0.25. AYDV was tested, and the growth estimate was < -0.25. AYEH was tested, and the growth estimate was < -0.25. For AYGDTACLQLLGNSDVLSAA, the growth estimate was < -0.25. AYGDWEENWAKVIV gave a growth estimate of -0.227. In the case of AYGEGFYGLLAVTRGF, the growth estimate is reported as < -0.25. AYGNDHLAETDMLGPQAGIA was tested, and the growth estimate was < -0.25. With AYHGLPS the growth estimate was < -0.25. With AYIDRGQSNERSPDVRDRKT the growth estimate was < -0.25. With AYILIGSE the growth estimate was < -0.25. With AYKHCWINPQNATAKDKFSL the growth estimate was < -0.25. For AYLNGTAMSVEVSAVCPDSR, the growth estimate was < -0.25. AYSGRQRKRFIIITWYRVSG was tested, and the growth estimate was < -0.25.
